This passage reports log2 fold change results from the supplement of paper PMC10849652.

The chains behind the UniProt entries cited, without tags or fusion partners. Where a name states a change or a piece, a line headed by the entry shows the natural chain unless it says otherwise.
UniProt P06733, whole entry, looked up: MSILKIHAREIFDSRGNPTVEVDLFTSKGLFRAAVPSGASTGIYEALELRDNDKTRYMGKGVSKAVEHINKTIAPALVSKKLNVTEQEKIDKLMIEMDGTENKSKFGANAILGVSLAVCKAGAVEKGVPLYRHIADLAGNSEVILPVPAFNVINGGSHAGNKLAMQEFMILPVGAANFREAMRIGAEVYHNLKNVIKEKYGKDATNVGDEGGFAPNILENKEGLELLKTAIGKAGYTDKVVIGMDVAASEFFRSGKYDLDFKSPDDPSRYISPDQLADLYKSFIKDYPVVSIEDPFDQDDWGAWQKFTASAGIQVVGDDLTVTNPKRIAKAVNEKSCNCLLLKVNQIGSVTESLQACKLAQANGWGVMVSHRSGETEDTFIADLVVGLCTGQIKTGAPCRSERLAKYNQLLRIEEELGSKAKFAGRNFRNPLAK
UniProt Q9P2K8: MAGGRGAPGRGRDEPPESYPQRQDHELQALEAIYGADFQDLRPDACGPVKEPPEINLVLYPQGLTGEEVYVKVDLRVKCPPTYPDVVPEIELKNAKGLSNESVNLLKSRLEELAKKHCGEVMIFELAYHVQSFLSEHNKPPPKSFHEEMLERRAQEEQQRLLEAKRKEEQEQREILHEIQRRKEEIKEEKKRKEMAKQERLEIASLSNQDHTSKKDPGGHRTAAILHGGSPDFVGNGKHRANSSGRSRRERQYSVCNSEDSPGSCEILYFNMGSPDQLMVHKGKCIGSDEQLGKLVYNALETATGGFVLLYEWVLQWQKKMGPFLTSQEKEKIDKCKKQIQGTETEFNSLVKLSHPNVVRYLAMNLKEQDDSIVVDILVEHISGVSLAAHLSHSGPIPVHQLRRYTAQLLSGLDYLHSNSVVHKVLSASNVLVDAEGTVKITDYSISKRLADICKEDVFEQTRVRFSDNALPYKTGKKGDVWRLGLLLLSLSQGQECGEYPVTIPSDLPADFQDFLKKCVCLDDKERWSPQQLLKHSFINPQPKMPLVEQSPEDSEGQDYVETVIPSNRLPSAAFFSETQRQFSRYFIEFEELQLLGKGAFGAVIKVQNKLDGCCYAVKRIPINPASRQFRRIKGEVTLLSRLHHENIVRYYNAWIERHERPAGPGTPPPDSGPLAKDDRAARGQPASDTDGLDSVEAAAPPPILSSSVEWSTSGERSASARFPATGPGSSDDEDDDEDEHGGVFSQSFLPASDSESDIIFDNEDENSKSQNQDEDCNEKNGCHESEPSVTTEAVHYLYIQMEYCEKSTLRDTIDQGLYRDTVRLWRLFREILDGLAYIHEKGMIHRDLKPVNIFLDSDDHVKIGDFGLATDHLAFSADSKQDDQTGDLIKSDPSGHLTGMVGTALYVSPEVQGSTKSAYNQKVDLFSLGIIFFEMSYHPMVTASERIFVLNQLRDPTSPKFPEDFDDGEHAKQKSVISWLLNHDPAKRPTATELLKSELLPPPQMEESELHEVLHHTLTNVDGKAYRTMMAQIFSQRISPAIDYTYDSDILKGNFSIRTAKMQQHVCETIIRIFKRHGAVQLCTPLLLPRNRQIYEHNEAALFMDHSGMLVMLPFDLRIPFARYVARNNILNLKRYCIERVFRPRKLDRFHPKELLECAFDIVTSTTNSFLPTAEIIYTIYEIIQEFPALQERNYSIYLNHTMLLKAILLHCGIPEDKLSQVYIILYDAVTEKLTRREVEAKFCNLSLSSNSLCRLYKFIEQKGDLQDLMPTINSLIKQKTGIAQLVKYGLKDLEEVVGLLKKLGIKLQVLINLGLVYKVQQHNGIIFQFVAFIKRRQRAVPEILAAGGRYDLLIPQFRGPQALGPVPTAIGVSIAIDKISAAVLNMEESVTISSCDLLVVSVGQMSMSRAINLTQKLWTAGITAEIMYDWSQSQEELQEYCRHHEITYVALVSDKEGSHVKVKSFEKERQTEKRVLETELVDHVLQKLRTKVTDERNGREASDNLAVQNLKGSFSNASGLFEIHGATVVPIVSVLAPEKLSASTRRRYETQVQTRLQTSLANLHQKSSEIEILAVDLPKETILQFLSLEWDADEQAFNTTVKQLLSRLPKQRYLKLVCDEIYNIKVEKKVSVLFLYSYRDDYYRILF
UniProt Q13144, whole entry, looked up: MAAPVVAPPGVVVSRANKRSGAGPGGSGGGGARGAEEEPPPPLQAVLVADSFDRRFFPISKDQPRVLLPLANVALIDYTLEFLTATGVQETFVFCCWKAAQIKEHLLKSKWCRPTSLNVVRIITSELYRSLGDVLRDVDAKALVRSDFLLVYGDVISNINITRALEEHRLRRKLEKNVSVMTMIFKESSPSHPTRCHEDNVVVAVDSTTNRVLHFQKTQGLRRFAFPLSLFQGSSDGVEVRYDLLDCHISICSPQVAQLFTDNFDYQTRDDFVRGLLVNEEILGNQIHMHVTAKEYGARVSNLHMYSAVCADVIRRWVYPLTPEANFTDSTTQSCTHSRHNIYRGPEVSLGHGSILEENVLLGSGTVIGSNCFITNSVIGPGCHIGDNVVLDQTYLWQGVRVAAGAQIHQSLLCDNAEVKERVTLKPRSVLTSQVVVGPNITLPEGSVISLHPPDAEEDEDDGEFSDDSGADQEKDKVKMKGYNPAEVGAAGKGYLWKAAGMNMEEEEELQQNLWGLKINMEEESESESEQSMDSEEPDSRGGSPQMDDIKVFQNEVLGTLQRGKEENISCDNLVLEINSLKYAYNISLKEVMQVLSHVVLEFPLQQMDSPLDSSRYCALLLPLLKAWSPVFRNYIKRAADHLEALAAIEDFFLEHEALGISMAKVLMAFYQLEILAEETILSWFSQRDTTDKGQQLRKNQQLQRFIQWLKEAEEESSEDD
UniProt P63241: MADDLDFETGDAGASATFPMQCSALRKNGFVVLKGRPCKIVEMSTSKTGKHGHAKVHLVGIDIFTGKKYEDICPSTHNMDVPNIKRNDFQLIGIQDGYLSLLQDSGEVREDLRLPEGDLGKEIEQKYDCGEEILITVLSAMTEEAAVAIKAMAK
UniProt P23588, whole entry, looked up: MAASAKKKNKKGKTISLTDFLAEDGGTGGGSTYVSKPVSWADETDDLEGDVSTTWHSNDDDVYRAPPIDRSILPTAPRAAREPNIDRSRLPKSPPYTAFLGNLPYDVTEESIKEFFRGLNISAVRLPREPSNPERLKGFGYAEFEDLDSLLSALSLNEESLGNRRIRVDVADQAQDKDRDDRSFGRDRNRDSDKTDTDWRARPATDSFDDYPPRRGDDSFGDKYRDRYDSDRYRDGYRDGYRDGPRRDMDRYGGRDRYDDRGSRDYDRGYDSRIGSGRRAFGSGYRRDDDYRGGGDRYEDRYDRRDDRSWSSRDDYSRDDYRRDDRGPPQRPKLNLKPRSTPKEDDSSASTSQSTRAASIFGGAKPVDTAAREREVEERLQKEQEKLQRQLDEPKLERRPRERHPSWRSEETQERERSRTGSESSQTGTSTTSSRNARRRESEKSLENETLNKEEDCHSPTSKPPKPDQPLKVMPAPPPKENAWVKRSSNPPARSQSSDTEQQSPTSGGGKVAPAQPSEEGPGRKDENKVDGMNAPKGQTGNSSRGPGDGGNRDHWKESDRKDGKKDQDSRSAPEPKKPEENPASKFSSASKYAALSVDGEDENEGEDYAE
UniProt Q92889: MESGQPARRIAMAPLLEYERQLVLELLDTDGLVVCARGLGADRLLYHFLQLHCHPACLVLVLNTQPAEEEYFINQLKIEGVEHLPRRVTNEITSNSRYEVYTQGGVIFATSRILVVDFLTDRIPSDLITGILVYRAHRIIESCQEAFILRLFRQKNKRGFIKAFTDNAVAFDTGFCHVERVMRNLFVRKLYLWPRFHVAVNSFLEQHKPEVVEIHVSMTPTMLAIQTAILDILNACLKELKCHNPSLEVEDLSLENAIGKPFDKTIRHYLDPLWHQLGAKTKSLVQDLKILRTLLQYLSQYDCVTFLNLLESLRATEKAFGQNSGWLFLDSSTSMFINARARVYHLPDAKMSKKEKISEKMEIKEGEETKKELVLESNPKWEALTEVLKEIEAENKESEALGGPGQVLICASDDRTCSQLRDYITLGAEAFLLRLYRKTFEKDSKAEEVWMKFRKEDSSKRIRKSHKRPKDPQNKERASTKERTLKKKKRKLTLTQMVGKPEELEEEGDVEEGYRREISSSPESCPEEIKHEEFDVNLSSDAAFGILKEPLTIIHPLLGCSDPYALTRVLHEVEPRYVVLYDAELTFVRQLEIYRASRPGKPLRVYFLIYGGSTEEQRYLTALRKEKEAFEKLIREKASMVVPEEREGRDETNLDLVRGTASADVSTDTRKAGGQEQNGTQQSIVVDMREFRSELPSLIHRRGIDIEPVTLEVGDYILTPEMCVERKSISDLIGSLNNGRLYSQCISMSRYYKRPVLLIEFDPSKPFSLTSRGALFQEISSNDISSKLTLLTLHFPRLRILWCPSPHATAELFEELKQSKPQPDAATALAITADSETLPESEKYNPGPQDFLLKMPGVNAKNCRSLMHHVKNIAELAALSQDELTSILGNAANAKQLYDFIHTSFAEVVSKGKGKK
UniProt O75356: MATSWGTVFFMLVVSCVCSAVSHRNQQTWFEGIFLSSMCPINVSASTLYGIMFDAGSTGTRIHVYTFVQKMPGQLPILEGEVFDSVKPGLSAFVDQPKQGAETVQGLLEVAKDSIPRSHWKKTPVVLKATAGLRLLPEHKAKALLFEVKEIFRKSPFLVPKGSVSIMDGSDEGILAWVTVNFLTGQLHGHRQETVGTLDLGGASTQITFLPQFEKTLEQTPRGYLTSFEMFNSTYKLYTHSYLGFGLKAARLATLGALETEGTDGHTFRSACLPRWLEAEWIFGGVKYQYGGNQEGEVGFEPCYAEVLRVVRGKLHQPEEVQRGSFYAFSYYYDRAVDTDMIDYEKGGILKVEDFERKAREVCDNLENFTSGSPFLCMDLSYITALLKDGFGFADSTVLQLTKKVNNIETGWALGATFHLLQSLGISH
UniProt Q7L775: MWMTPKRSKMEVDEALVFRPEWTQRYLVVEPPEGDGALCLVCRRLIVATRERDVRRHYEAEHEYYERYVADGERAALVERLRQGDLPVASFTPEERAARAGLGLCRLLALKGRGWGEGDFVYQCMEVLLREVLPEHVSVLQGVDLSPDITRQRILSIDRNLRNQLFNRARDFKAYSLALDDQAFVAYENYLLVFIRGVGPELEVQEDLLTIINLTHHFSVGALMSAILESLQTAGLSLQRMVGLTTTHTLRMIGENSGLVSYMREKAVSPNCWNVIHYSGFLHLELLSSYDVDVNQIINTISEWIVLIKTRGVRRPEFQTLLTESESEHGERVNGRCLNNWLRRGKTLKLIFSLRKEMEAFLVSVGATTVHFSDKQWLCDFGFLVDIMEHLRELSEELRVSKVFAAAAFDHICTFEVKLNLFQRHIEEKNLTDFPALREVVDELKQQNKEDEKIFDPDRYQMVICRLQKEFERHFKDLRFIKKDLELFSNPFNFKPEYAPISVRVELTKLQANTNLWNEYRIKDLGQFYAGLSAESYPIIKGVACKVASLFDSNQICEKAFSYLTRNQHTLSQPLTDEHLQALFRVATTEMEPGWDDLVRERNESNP
UniProt Q9NPA8: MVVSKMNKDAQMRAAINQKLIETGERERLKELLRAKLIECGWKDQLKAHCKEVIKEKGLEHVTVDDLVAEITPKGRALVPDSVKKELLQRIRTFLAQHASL
UniProt Q14249: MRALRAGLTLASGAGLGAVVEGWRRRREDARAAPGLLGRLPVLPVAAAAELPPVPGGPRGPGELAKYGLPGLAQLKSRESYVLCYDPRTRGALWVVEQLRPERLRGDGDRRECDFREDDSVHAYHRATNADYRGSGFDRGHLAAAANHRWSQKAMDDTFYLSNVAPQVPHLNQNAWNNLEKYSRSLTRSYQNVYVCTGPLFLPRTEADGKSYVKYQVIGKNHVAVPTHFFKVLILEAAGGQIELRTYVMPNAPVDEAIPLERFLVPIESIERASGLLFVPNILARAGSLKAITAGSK
UniProt O60573: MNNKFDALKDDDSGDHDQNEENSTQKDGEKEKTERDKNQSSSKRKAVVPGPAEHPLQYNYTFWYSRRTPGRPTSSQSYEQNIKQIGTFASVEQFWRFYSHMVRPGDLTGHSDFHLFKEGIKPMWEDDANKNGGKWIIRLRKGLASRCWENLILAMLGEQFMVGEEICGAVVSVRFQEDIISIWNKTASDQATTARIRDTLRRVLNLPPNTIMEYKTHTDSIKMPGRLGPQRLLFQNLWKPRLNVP
UniProt Q9H777: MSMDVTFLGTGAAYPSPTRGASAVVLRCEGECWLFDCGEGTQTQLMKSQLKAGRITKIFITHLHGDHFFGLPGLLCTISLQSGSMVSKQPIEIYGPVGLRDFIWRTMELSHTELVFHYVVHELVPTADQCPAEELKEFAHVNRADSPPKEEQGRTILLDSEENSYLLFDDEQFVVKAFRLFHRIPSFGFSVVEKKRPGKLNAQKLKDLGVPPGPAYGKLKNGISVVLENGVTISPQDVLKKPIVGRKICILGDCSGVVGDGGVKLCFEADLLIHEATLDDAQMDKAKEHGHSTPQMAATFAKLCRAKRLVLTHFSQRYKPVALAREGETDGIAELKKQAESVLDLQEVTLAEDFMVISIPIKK

The list shows a part of the results.

Compound in the first assay: C1=CC=C(C=C1)[C@H](COC2=CC3=C(C=C2)NC(=O)N3)NC(=O)C4=CC=CN(C4=O)CC5=CC(=C(C=C5)F)F
In words: log2 fold change, soluble protein after heating vs DMSO (PISA); higher = thermal stabilisation; K562 lysate, 10 uM; active = over 0.2 and 3.5 SD of the protein, either way, in both replicates (recomputed). The gist of the method: (§1)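 K562 pellets were dounce-homogenised in PBS pH 7.4 with 1 mM MgCl2, and the crude extract at 1 mg/mL protein was treated with 10 μM compound for 30 min. Aliquots were heated for 3 min across 48°C-58°C, pooled, and brought to 0.5% NP-40 at 4°C; soluble protein was the supernatant after 21,000xg for 90 min. Soluble protein was quantified by TMTpro 16plex LC-MS/MS with channel sums equalised, and reported as log2 fold change in thermal stability against DMSO controls, with values from duplicates.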
On to ENO1 isoform 2 (UniProt P06733), for which the log2 fold change is inactive: 0.068.

In the case of ELK1 (UniProt P19419), the log2 fold change was inactive: -0.171.

For EPHB4 (UniProt P54760), the log2 fold change was inactive: -0.05.

Take EIF2AK4 (UniProt Q9P2K8): the log2 fold change is inactive: -0.033.

Take ERGIC2 (UniProt Q96RQ1): the log2 fold change is inactive: -0.128.

Take EIF2B4 isoform 2 (UniProt Q9UI10): the log2 fold change is inactive: -0.026.

With EIF2B5 (UniProt Q13144), the log2 fold change was inactive: -0.03.

On to EPB41, A0A2R8Y6D0, for which the log2 fold change was inactive: -0.052.

As to EME1 isoform 2 (UniProt Q96AY2), the log2 fold change is inactive: 0.024.

In the case of ENSA isoform 3 (UniProt O43768), the log2 fold change was inactive: 0.037.

Turning to EIF2AK2 (UniProt P19525), the log2 fold change was inactive: 0.01.

Take EIF5A isoform 2 (UniProt P63241): the log2 fold change was inactive: 0.028.

Turning to EIF4B (UniProt P23588), the log2 fold change was inactive: 0.026.

As for EMC10 (UniProt Q5UCC4), the log2 fold change is inactive: 0.004.

Take ELF1 (UniProt P32519): the log2 fold change was inactive: 0.037.

As for EIF3B isoform 2 (UniProt P55884), the log2 fold change was inactive: 0.007.

As for ERCC4 (UniProt Q92889), the log2 fold change was inactive: -0.038.

Regarding ENTPD5 (UniProt O75356), the log2 fold change is inactive: -0.094.

Take EP300 (UniProt Q09472): the log2 fold change was inactive: -0.048.

For the target EPM2AIP1 (UniProt Q7L775), the log2 fold change is inactive: -0.023.

Regarding EIF5B (UniProt O60841), the log2 fold change was inactive: 0.001.

For the target ENO3 (UniProt P13929), the log2 fold change is inactive: -0.056.

With EP400 isoform 5 (UniProt Q96L91), the log2 fold change was inactive: -0.008.

In the case of EIF3M (UniProt Q7L2H7), the log2 fold change was inactive: 0.005.

As for ENY2 (UniProt Q9NPA8), the log2 fold change was inactive: 0.033.

Consider EIF4G1 (UniProt Q04637), for which the log2 fold change was inactive: -0.032.

On to ENDOG (UniProt Q14249), for which the log2 fold change was inactive: 0.032.

For the target EPPK1 (UniProt P58107), the log2 fold change was inactive: -0.064.

For EIF3D (UniProt O15371), the log2 fold change is inactive: -0.004.

On to ELL (UniProt P55199), for which the log2 fold change was inactive: 0.031.

As to EPN1 (UniProt Q9Y6I3), the log2 fold change is inactive: -0.002.

For the target EML4 (UniProt Q9HC35), the log2 fold change was inactive: 0.01.

As to EIF4E2 (UniProt O60573), the log2 fold change is inactive: 0.068.

Consider ELAC1 (UniProt Q9H777), for which the log2 fold change was inactive: -0.07.

Compound in the next assay: CC1=C(SC2=C1C(=N[C@H](C3=NN=C(N32)C)CC(=O)N)C4=CC=C(C=C4)Cl)C
The assay is described as above. The gist of the method: as §1
As for ENO1 isoform 2 (UniProt P06733), the log2 fold change is inactive: -0.145.

For ELK1 (UniProt P19419), the log2 fold change was inactive: -0.007.

Regarding EPHB4 (UniProt P54760), the log2 fold change was inactive: 0.026.

With EIF2AK4 (UniProt Q9P2K8), the log2 fold change is inactive: 0.006.

As to ERGIC2 (UniProt Q96RQ1), the log2 fold change is inactive: -0.001.

Regarding EIF2B4 isoform 2 (UniProt Q9UI10), the log2 fold change was inactive: 0.04.

With EIF2B5 (UniProt Q13144), the log2 fold change was inactive: 0.007.

With EPB41, A0A2R8Y6D0, the log2 fold change was inactive: 0.028.

As for EME1 isoform 2 (UniProt Q96AY2), the log2 fold change was inactive: 0.045.

In the case of ENSA isoform 3 (UniProt O43768), the log2 fold change was inactive: -0.027.

Turning to EIF2AK2 (UniProt P19525), the log2 fold change was inactive: -0.002.

With EIF5A isoform 2 (UniProt P63241), the log2 fold change is inactive: -0.011.

EIF4B (UniProt P23588): the log2 fold change is inactive: 0.002.

For the target EMC10 (UniProt Q5UCC4), the log2 fold change was inactive: 0.013.

For the target ELF1 (UniProt P32519), the log2 fold change is inactive: 0.014.

On to EIF3B isoform 2 (UniProt P55884), for which the log2 fold change is inactive: 0.

ERCC4 (UniProt Q92889): the log2 fold change is inactive: 0.036.

As to ENTPD5 (UniProt O75356), the log2 fold change was inactive: 0.116.

For the target EP300 (UniProt Q09472), the log2 fold change was inactive: -0.013.

Take EPM2AIP1 (UniProt Q7L775): the log2 fold change is inactive: -0.054.

EIF5B (UniProt O60841): the log2 fold change was inactive: -0.041.

In the case of ENO3 (UniProt P13929), the log2 fold change was inactive: 0.049.

With EP400 isoform 5 (UniProt Q96L91), the log2 fold change is inactive: 0.024.

For the target EIF3M (UniProt Q7L2H7), the log2 fold change is inactive: 0.004.

With ENY2 (UniProt Q9NPA8), the log2 fold change is inactive: -0.001.

As for EIF4G1 (UniProt Q04637), the log2 fold change was inactive: -0.002.

ENDOG (UniProt Q14249): the log2 fold change is inactive: -0.005.

On to EPPK1 (UniProt P58107), for which the log2 fold change was inactive: -0.012.

As to EIF3D (UniProt O15371), the log2 fold change is inactive: 0.029.

Consider ELL (UniProt P55199), for which the log2 fold change was inactive: -0.028.

In the case of EPN1 (UniProt Q9Y6I3), the log2 fold change was inactive: 0.019.

As to EML4 (UniProt Q9HC35), the log2 fold change is inactive: 0.006.

As for EIF4E2 (UniProt O60573), the log2 fold change is inactive: -0.012.

Regarding ELAC1 (UniProt Q9H777), the log2 fold change is inactive: -0.063.

Compound in a further assay: CC1=C2C(=CC=C1)N=C(N(C2=O)C3=CC=CC=C3C)CN4C=NC5=C(N=CN=C54)N
The description is as above. In outline:
as §1
Take ENO1 isoform 2 (UniProt P06733): the log2 fold change was inactive: 0.033.

ELK1 (UniProt P19419): the log2 fold change is inactive: 0.391.

EPHB4 (UniProt P54760): the log2 fold change was inactive: 0.111.

On to EIF2AK4 (UniProt Q9P2K8), for which the log2 fold change is inactive: 0.019.

On to ERGIC2 (UniProt Q96RQ1), for which the log2 fold change is inactive: -0.044.

Turning to EIF2B4 isoform 2 (UniProt Q9UI10), the log2 fold change is inactive: 0.037.

For the target EIF2B5 (UniProt Q13144), the log2 fold change is inactive: 0.019.

Consider EPB41, A0A2R8Y6D0, for which the log2 fold change is inactive: -0.071.

Consider EME1 isoform 2 (UniProt Q96AY2), for which the log2 fold change is inactive: 0.108.

ENSA isoform 3 (UniProt O43768): the log2 fold change is inactive: -0.024.

With EIF2AK2 (UniProt P19525), the log2 fold change was inactive: -0.027.

Take EIF5A isoform 2 (UniProt P63241): the log2 fold change was inactive: -0.007.

Consider EIF4B (UniProt P23588), for which the log2 fold change was inactive: -0.002.

Turning to EMC10 (UniProt Q5UCC4), the log2 fold change is inactive: 0.041.

With ELF1 (UniProt P32519), the log2 fold change is inactive: -0.053.

In the case of EIF3B isoform 2 (UniProt P55884), the log2 fold change is inactive: 0.009.

On to ERCC4 (UniProt Q92889), for which the log2 fold change is inactive: 0.043.

Take ENTPD5 (UniProt O75356): the log2 fold change was inactive: 0.022.

With EP300 (UniProt Q09472), the log2 fold change is inactive: 0.025.

Regarding EPM2AIP1 (UniProt Q7L775), the log2 fold change was inactive: 0.029.

In the case of EIF5B (UniProt O60841), the log2 fold change is inactive: 0.005.

In the case of ENO3 (UniProt P13929), the log2 fold change was inactive: -0.092.

For EP400 isoform 5 (UniProt Q96L91), the log2 fold change was inactive: -0.014.

As to EIF3M (UniProt Q7L2H7), the log2 fold change is inactive: -0.038.

As for ENY2 (UniProt Q9NPA8), the log2 fold change was inactive: -0.162.

In the case of EIF4G1 (UniProt Q04637), the log2 fold change was inactive: 0.002.

Regarding ENDOG (UniProt Q14249), the log2 fold change was inactive: 0.012.

Take EPPK1 (UniProt P58107): the log2 fold change was inactive: 0.003.

Regarding EIF3D (UniProt O15371), the log2 fold change is inactive: 0.011.

As for ELL (UniProt P55199), the log2 fold change was inactive: 0.127.

For EPN1 (UniProt Q9Y6I3), the log2 fold change is inactive: -0.017.

With EML4 (UniProt Q9HC35), the log2 fold change was inactive: 0.025.

EIF4E2 (UniProt O60573): the log2 fold change was inactive: 0.052.

Take ELAC1 (UniProt Q9H777): the log2 fold change was inactive: 0.096.
